A short description of data set [1]: Differential scanning calorimetry of the main phase transition of LUVs with peptide. The note with it: pH 7.4, non-two state fit; for Tm broad, fitted (transition temperature): 0.5 mM DMPC LUVs + peptide 4 mol% (20 µM), 20 mM sodium phosphate, 150 mM NaCl, 1°C/min; for Tm broad, fitted (transition temperature) / DH broad, fitted (transition enthalpy) / DHvh broad, fitted (van't Hoff transition enthalpy): broad component; for DH broad, fitted (transition enthalpy) / DHvh broad, fitted (van't Hoff transition enthalpy) / DH sharp, fitted (transition enthalpy) / DHvh sharp, fitted (van't Hoff transition enthalpy) / Tm sharp, fitted (transition temperature): 0.5 mM DMPC LUVs + peptide 4 mol%; for DH sharp, fitted (transition enthalpy) / DHvh sharp, fitted (van't Hoff transition enthalpy) / Tm sharp, fitted (transition temperature): sharp component. On the technique in general: In DSC, transitions show as peaks or steps in heat flow.

A short description of data set [2]: Far UV circular dichroism of peptides with DMPC LUVs (MRE, α-helix percentage). The following applies: for % Helicity 0.01 peptide/DMPC (mol/mol) (Greenfield 69) / % Helicity 0.01 peptide/DMPC (mol/mol) (Chen 74): DMPC LUVs; for % Helicity 0.01 peptide/DMPC (mol/mol) (Greenfield 69): from [q]208 nm, Greenfield et al. 1969; for % Helicity 0.01 peptide/DMPC (mol/mol) (Chen 74): from [q]222 nm, Chen et al. 1974; for [q]208 nm 0.01 peptide/DMPC (mol/mol) (Greenfield 69): Mean Residue Ellipticity at 208 nm; for [q]208 nm 0.01 peptide/DMPC (mol/mol) (Greenfield 69) / [q]222 nm 0.01 peptide/DMPC (mol/mol) (Chen 74): titrated with DMPC LUVs; for [q]222 nm 0.01 peptide/DMPC (mol/mol) (Chen 74): Mean Residue Ellipticity at 222 nm.

A short description of data set [3]: Far UV circular dichroism of peptides with 2:1 DMPC:DMPG LUVs (MRE, α-helix percentage). The note with it: 0.01 peptide/lipid (mol/mol); for % Helicity 0.01 peptide/(2:1 DMPC/DMPG) (mol/mol) (Greenfield 69) / % Helicity 0.01 peptide/(2:1 DMPC/DMPG) (mol/mol): 2:1 DMPC/DMPG LUVs; for % Helicity 0.01 peptide/(2:1 DMPC/DMPG) (mol/mol) (Greenfield 69): from [q]208 nm, Greenfield et al. 1969; for % Helicity 0.01 peptide/(2:1 DMPC/DMPG) (mol/mol): from [q]222 nm, Chen et al. 1974; for [q]208 nm 0.01 peptide/(2:1 DMPC/DMPG) (mol/mol) (Greenfield 69): Mean Residue Ellipticity at 208 nm; for [q]208 nm 0.01 peptide/(2:1 DMPC/DMPG) (mol/mol) (Greenfield 69) / [q]222 nm 0.01 peptide/(2:1 DMPC/DMPG) (mol/mol) (Chen 74): titrated with 2:1 DMPC/DMPG LUVs; for [q]222 nm 0.01 peptide/(2:1 DMPC/DMPG) (mol/mol) (Chen 74): Mean Residue Ellipticity at 222 nm. Background: Circular dichroism is the unequal absorption of left and right circularly polarised light.

On to “FKALRALRLEDLRIPTSYIK [A3KLW0(117–136), putative IAP; fragment of Rubisco large chain, Anisophyllea pomifera]”, for which, in data set [1], the “Tm broad, fitted (transition temperature)” value (from here on “Tm broad, fitted”) was found to be 23.48 °C; the “DH broad, fitted (transition enthalpy)” value was determined as 2.27 kcal/mol; the “DHvh broad, fitted (van't Hoff transition enthalpy)” value (shortened to “DHvh broad, fitted”) stood at 319 kcal/mol; the “DH sharp, fitted (transition enthalpy)” value came out at 2.11 kcal/mol. For the same sequence, in data set [1], the “DHvh sharp, fitted (van't Hoff transition enthalpy)” value (from here on “DHvh sharp, fitted”) turned out to be 965 kcal/mol and the “Tm sharp, fitted (transition temperature)” value (“Tm sharp, fitted” for short) stood at 24.2 °C. Moreover, in data set [2], the “% Helicity 0.01 peptide/DMPC (mol/mol) (Greenfield 69)” value turned out to be 23.1%, the “% Helicity 0.01 peptide/DMPC (mol/mol) (Chen 74)” value is 8.8%, the “[q]208 nm 0.01 peptide/DMPC (mol/mol) (Greenfield 69)” value (shortened to “[q]208 nm 0.01 peptide/DMPC (mol/mol)”) is reported as -10693 and the “[q]222 nm 0.01 peptide/DMPC (mol/mol) (Chen 74)” value (shortened to “[q]222 nm 0.01 peptide/DMPC”) is given as -3087. For the same sequence, in data set [3], the “% Helicity 0.01 peptide/(2:1 DMPC/DMPG) (mol/mol) (Greenfield 69)” value worked out at 19.9%, the “% Helicity 0.01 peptide/(2:1 DMPC/DMPG) (mol/mol)” value is reported as 8.5%, the “[q]208 nm 0.01 peptide/(2:1 DMPC/DMPG) (mol/mol) (Greenfield 69)” value (“[q]208 nm 0.01 peptide/(2:1 DMPC/DMPG)” for short) is recorded as -9759 and the “[q]222 nm 0.01 peptide/(2:1 DMPC/DMPG) (mol/mol) (Chen 74)” value (shortened to “[q]222 nm 0.01 peptide/(2:1 DMPC/DMPG)”) is recorded as -3008.
In the case of “FVTNSKRLAEGIEKGVGNSILIKVN [Q8KG25(327–351), putative IAP; fragment of Enolase 2, Chlorobium tepidum]”, in data set [1], the “Tm broad, fitted” value was found to be 23.49 °C; the “DH broad, fitted (transition enthalpy)” value was 2.6 kcal/mol; the “DHvh broad, fitted” value was determined as 298 kcal/mol; the “DH sharp, fitted (transition enthalpy)” value is 2.08 kcal/mol. Besides, in data set [1], the “DHvh sharp, fitted” value is 1010 kcal/mol and the “Tm sharp, fitted” value is 24.2 °C. In data set [2], the “% Helicity 0.01 peptide/DMPC (mol/mol) (Greenfield 69)” value is listed as 9.3%, the “% Helicity 0.01 peptide/DMPC (mol/mol) (Chen 74)” value was found to be 15%, the “[q]208 nm 0.01 peptide/DMPC (mol/mol)” value was -6689 and the “[q]222 nm 0.01 peptide/DMPC” value is recorded as -5287. Besides, in data set [3], the “% Helicity 0.01 peptide/(2:1 DMPC/DMPG) (mol/mol) (Greenfield 69)” value was determined as 7.3%, the “% Helicity 0.01 peptide/(2:1 DMPC/DMPG) (mol/mol)” value came out at 17%, the “[q]208 nm 0.01 peptide/(2:1 DMPC/DMPG)” value is given as -6110 and the “[q]222 nm 0.01 peptide/(2:1 DMPC/DMPG)” value was -6002.
Regarding “KAGLQFPVGRIARFLK [B4FGE3(22–37), putative IAP; fragment of Histone H2A, Zea mays]”, in data set [1], the “Tm broad, fitted” value came out at 23.52 °C; the “DH broad, fitted (transition enthalpy)” value turned out to be 2.97 kcal/mol; the “DHvh broad, fitted” value turned out to be 301 kcal/mol; the “DH sharp, fitted (transition enthalpy)” value was 2.25 kcal/mol. Moreover, in data set [1], the “DHvh sharp, fitted” value worked out at 1040 kcal/mol and the “Tm sharp, fitted” value turned out to be 24.22 °C. In data set [2], the “% Helicity 0.01 peptide/DMPC (mol/mol) (Greenfield 69)” value was -0.567%, the “% Helicity 0.01 peptide/DMPC (mol/mol) (Chen 74)” value came out at 3%, the “[q]208 nm 0.01 peptide/DMPC (mol/mol)” value is -3836 and the “[q]222 nm 0.01 peptide/DMPC” value is -1051. Further, in data set [3], the “% Helicity 0.01 peptide/(2:1 DMPC/DMPG) (mol/mol) (Greenfield 69)” value amounted to 3.1%, the “% Helicity 0.01 peptide/(2:1 DMPC/DMPG) (mol/mol)” value is 5.8%, the “[q]208 nm 0.01 peptide/(2:1 DMPC/DMPG)” value is recorded as -4889 and the “[q]222 nm 0.01 peptide/(2:1 DMPC/DMPG)” value is listed as -2047.

Source of the values: publication PMC3461044, “Probing Protein Sequences as Sources for Encrypted Antimicrobial Peptides” (PLoS ONE, 2012).
